Assay results from PMC10995283.
Results are given in words; binding and its absence hold for the method and conditions named. Binding seen in cells or lysates may run through a third protein. Some binding calls cover weakened binding; strength is not graded here.

The chains behind the UniProt entries cited, without tags or fusion partners.
UniProt Q8C863: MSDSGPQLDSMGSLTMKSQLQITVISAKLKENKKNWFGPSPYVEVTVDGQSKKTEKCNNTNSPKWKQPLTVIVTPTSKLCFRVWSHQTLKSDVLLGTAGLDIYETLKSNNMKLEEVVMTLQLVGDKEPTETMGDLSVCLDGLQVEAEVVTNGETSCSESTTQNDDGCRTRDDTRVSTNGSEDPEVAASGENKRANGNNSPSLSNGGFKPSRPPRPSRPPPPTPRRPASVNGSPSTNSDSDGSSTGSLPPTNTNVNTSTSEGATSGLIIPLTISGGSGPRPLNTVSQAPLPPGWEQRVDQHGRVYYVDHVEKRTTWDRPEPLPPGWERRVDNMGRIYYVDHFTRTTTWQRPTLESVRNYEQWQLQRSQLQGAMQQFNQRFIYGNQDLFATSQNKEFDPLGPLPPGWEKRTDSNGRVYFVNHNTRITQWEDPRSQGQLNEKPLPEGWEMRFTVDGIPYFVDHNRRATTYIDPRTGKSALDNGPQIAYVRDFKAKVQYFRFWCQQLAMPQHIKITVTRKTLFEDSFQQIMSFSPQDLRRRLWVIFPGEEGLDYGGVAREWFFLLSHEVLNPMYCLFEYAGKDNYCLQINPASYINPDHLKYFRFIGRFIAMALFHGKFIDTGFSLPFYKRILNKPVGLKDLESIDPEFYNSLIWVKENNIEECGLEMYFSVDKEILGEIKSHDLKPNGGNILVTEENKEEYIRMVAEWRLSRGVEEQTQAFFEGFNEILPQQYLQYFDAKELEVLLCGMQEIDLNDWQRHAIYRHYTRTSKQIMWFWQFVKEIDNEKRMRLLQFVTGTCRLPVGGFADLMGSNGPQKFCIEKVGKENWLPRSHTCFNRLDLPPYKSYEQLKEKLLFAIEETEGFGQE

Target: C‐CBL (UniProt P22682)
Test: co-IP; co-immunoprecipitation from C2C12 cell lysate (IP lysis buffer, beads overnight at 4°C), western blot

ITCH (from UniProt Q8C863 1-864)
binding: binds
